This note sets out measurements from patent publication US20230176076.

The data set deals with T1, JUL1 (JULGI) (Arabidopsis thaliana).
T1 sequence: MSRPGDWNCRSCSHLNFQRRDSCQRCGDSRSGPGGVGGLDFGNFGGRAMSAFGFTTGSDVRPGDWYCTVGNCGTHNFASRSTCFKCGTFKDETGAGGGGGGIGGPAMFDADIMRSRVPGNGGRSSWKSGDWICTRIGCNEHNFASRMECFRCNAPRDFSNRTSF
In words: binding assay. Conditions: GST-JUL1 bead surface interaction assay, fluorescence microscopy; purified recombinant protein; protein details: GST.

For at least one entry, the source does not settle the construct or the ends of the probe. Tags and fusion partners may be left off the protein sequences shown.

In the case of “GGGGCCGGGGCCGGGGCCGGGG [C9orf72 G-quadruplex]”, the binding result was “binds”.
